What all share (test): two-hybrid; small-scale, co-transformation of one bait (BD fusion of HLP_PM19 deletion mutants) and one prey (AD-AtToc33); growth and blue colour on DDO with aureobasidin A and X-alpha-Gal (DDOXA)
Assay [1] addresses HLP_(PM19-C) fused to the Gal4 binding domain ('Candidatus Phytoplasma mali' strain PM19).
Assay [2] addresses HLP_(PM19-ΔTM) fused to the Gal4 binding domain ('Candidatus Phytoplasma mali' strain PM19).
Assay [3] concerns the target HLP_(PM19-N) fused to the Gal4 binding domain ('Candidatus Phytoplasma mali' strain PM19).
Assay [4] concerns the target HLP_(PM19-DUF21-C) fused to the Gal4 binding domain ('Candidatus Phytoplasma mali' strain PM19).

These are yes or no findings as the source states them, for the method shown. For some of these results: Binding can be weak; no strength is given. Sequences can lack the tags named with a protein.

B1: A. thaliana translocase of chloroplast 33 fused to the Gal4 activation domain (protein, UniProt O23680 1-297)
chain: MGSLVREWVGFQQFPAATQEKLIEFFGKLKQKDMNSMTVLVLGKGGVGKSSTVNSLIGEQVVRVSPFQAEGLRPVMVSRTMGGFTINIIDTPGLVEAGYVNHQALELIKGFLVNRTIDVLLYVDRLDVYRVDELDKQVVIAITQTFGKEIWCKTLLVLTHAQFSPPDELSYETFSSKRSDSLLKTIRAGSKMRKQEFEDSAIAVVYAENSGRCSKNDKDEKALPNGEAWIPNLVKAITDVATNQRKAIHVDKKMVDGSYSDDKGKKLIPLIIGAQYLIVKMIQGAIRNDIKTSGKPL
Take B1: the binding entry in assay [1] was “no binding”; in assay [2], “binds”; in assay [3] it was “binds”; in assay [4], “binds”.

The values above are taken from PMC12113829.
